The other results are listed elsewhere or left out. This data set is noisy: repeats of one test often differ as much as different tests do.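 Human embryonic kidney cells were transiently transfected with a plasmid bearing a Renilla luciferase gene under the HSV-TK promoter. This first-round screen tests roughly ten thousand compounds for ones that increase reporter output.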
The compounds below were run on HEK 293FT (assay: log relative Renilla luciferase luminescence (reporter expression vs reference, reference not stated) (log (base not stated)); higher = higher recombinant reporter expression). Conditions: 10 µM; time after transfection 48 h.
Description: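 HEK 293FT cells transiently transfected with pRL-TK (Renilla luciferase) were treated with compounds at 10 uM and luminescence was read about 42 h later. Values are log relative Renilla luminescence (log base and reference not stated). Single-pass screen; ICCB Known Bioactives library.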
CCCCCCCCCCCCCCC(F)C(=O)O (stereo not given) [2-Fluoropalmitic acid] showed a log of 0.202. In the case of COC(=O)C[C@H](NC(=O)[C@H](C)NC(=O)[C@@H](NC(=O)OCc1ccccc1)C(C)C)C(=O)CF, the log is reported as -0.116. For COc1ccc2cc1Oc1ccc(cc1)C[C@H]1c3cc(c(OC)cc3CCN1C)Oc1c(OC)c(OC)cc3c1[C@H](C2)N(C)CC3 [Tetrandrine], the log was 0.158. CN/C(=N\c1ccc(C2=NNC(=O)CC2C)cc1)NC#N (stereo not given) [Siguazodan] was tested, and the log was -0.534. In the case of O=C(O)CNC(=O)C(CS)Cc1ccccc1 (stereo not given) [Thiorphan], the log is reported as 0.18. CCCCCCCC/C=C\CCCCCCCC(=O)OC[C@H](CO)OC(C)=O [1-Oleoyl-2-acetyl-glycerol] gave a log of 0.0468. COc1ccc(CCCOC(Cn2ccnc2)c2ccc(OC)cc2)cc1 (stereo not given) was tested, and the log was 0.184. In the case of CN(CCc1ccc(Cl)c(Cl)c1)CC(O)COc1ccc(NS(C)(=O)=O)cc1 (stereo not given), the log is reported as -0.126. In the case of CCCCC[C@H](O)/C=C/C=C\CCCCCCCC(=O)O, the log is reported as -0.0475. With CCCCC[C@H](O)/C=C/[C@H]1C=CC(=O)[C@@H]1CCCCCCC(=O)O [Prostaglandin A1] the log was -0.0562. With CCCCC[C@H](O)/C=C/[C@H]1C=CC(=O)[C@@H]1C/C=C\CCCC(=O)O [Prostaglandin A2] the log was -0.219. Work on CC(=O)N[C@@H](CSC/C=C(\C)CC/C=C(\C)CCC=C(C)C)C(=O)O [Acetyl (N)-S-farnesyl-L-cysteine] yielded a log of 0.0222. Compound O=Nc1c(-c2c(O)[nH]c3ccccc23)[nH]c2ccccc12 [Indirubin-3'-monoxime] has a log of -0.412. Work on NC12CC3CC(CC(C3)C1)C2 [Amantidine] yielded a log of 0.0483. CC1=NN(c2ccccc2)C(=O)C1 showed a log of 0.257. With CC(C)CC(=O)N[C@H](C(=O)N[C@H](C(=O)N[C@@H](CC(C)C)[C@@H](O)CC(=O)N[C@@H](C)C(=O)N[C@@H](CC(C)C)[C@@H](O)CC(=O)O)C(C)C)C(C)C [Pepstatin] the log was -0.41. O=c1oc(Cl)c(Cl)c2ccccc12 [3,4-Dichloroisocoumarin] was tested, and the log was 0.00644. In the case of CC(=O)[C@H]1[C@H](C#N)C[C@H]2[C@@H]3CC=C4C[C@@H](O)CC[C@]4(C)[C@H]3CC[C@@]21C [Pregnenolone 16a carbonitrile], the log is reported as -0.181. With COc1cc2c(cc1OC)-c1c/c(=N\c3c(C)cc(C)cc3C)n(C)c(=O)n1CC2 [Trequinsin] the log was -0.0215. Compound CCCCCC(O)C=CC1C2CC(CO2)C1CC=CCCCC(=O)O (stereo not given) has a log of -0.167. For CC(C)C[C@@H](/C=C/S(C)(=O)=O)NC(=O)[C@H](CC(C)C)NC(=O)[C@H](CC(C)C)NC(=O)OCc1ccccc1, the log was -1.63. For CCCCCCCCCCCCCCCC(=O)NCCO [Palmitylethanolamide], the log was -0.126. Compound CCCCC/C=C\C/C=C\C/C=C\C/C=C\CCCC(=O)O[C@@H](CO)COCCCCCCCCCCCCCCCC [1-Hexadecyl-2-arachidonoyl-glycerol] has a log of -0.167. Work on Oc1c2ccccc2c2c3c(cccc13)N=N2 yielded a log of 0.0574. COC(=O)C1=C(C)NC(C)=C(C(=O)OC)C1c1ccccc1[N+](=O)[O-] [Nifedipine] was tested, and the log was 0.149. Compound CCCCCCCC/C=C\CCCCCCCC(N)=O [9,10-Octadecenoamide] has a log of 0.171. CCCC[C@@H](C)/C=C(C)/C=C(\C)C(=O)NC1=C[C@@](O)(/C=C/C=C/C=C/C(=O)NC2=C(O)CCC2=O)[C@@H]2O[C@@H]2C1=O [Manumycin A] showed a log of 0.276. COC(=O)C1=C(C)NC(C)=C(C(=O)OCCN(C)Cc2ccccc2)C1c1cccc([N+](=O)[O-])c1 (stereo not given) [Nicardipine] gave a log of 0.09. With CCCCCCCCC#CCC#CCC#CCCCC(=O)O [5,8,11-Eicosatriynoic acid] the log was 0.235. O=C1C(SCCO)=C(SCCO)C(=O)c2ccccc21 gave a log of -1.29. For CCCCCC(O)C=CC1C(O)CC(O)C1CCCCCCC(=O)O (stereo not given) [Prostaglandin F1a], the log was 0.0123. N#CC(=Cc1cc(Cl)cc(Cl)c1)c1cccnc1 was tested, and the log was -0.247. COc1ccc(Cl)cc1C(=O)NCCc1ccc(S(=O)(=O)NC(=O)NC2CCCCC2)cc1 [Glyburide] showed a log of 0.305. C1CCCC2CCCN3CCC(CCCCCCC4CCCN5CCC(CC1)OC45)OC23 (stereo not given) [Xestospongin C] gave a log of 0.0238. CCCCC/C=C\C\C=C/C=C/C=C/CC(=O)CCCC(=O)O [5-Ketoeicosatetraenoic acid] showed a log of -0.00555. With Cc1ccc(NC(=O)c2cccc(N(C)C)c2)cc1NC(=O)c1ccc(O)cc1 the log was -0.303. With CO[C@@]12[C@H](COC(N)=O)C3=C(C(=O)C(C)=C(N)C3=O)N1C[C@@H]1N[C@@H]12 [Mitomycin C] the log was -0.00123. CCCCCC=CCC=CC=CC=CC(SCC(NC(C)=O)C(=O)O)C(O)CCCC(=O)O (stereo not given) [N-Acetyl-leukotriene E4] was tested, and the log was -0.063. Work on Nc1ncnc2c1ncn2C1CCCO1 (stereo not given) yielded a log of -0.108. Work on CCCCCC[C@@H]([C@@H](C)O)n1cnc2c(N)ncnc21 yielded a log of -0.482.
